Experimental data taken from patent publication US20160256527A1 (ONCOMED PHARMACEUTICALS, published 2016).
No constants are given. Whether binding was seen depends on the method and setting. Some entries that bind do so weakly or less than the wild type. Where a sequence is shown, tags or fusion partners need not be part of it.

Key:
[1] = target: T1, full-length mouse GITR (cell surface expression) (mouse) (UniProt O35714); test: flow cytometry, HEK-293 cells transfected with full-length mouse GITR
T1 sequence (looked up): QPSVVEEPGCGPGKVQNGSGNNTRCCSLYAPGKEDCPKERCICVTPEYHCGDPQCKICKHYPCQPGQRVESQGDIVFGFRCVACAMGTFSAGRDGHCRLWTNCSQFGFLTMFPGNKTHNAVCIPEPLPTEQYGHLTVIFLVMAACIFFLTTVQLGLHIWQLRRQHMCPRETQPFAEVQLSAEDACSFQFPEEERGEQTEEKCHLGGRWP

[2] = target: T1, full-length mouse GITR (cell surface expression) (mouse); test: flow cytometry on HEK293 cells transiently co-transfected with full-length mouse GITR and GFP; PE-conjugated anti-Fc secondary antibody; binding signal plotted against GFP
[3] = target: T1, full-length mouse GITR (cell surface expression) (mouse); test: flow cytometry dose response, HEK-293 cells transfected with full-length mouse GITR
[4] = target: T1, full-length mouse GITR (cell surface expression) (mouse); test: flow cytometry dose series (2-fold dilutions) on HEK293 cells transiently co-transfected with mouse GITR and GFP; PE-conjugated anti-Fc secondary antibody

Measured: binding

B1: 336B3, single chain mouse GITRL trimer linked to the C-terminus of a mouse IgG2a Fc region (Fc fusion, UniProt Q7TS55 43-173, looked up, not shown: a dimerising Fc or GST)
chain: SLKPTAIESCMVKFELSSSKWHMTSPKPHCVNTTSDGKLKILQSGTYLIYGQVIPVDKKYIKDNAPFVVQIYKKNDVLQTLMNDFQILPIGGVYELHAGDNIYLKFNSKDHIQKTNTYWGIILMPDLPFISSLKPTAIESCMVKFELSSSKWHMTSPKPHCVNTTSDGKLKILQSGTYLIYGQVIPVDKKYIKDNAPFVVQIYKKNDVLQTLMNDFQILPIGGVYELHAGDNIYLKFNSKDHIQKTNTYWGIILMPDLPFISSLKPTAIESCMVKFELSSSKWHMTSPKPHCVNTTSDGKLKILQSGTYLIYGQVIPVDKKYIKDNAPFVVQIYKKNDVLQTLMNDFQILPIGGVYELHAGDNIYLKFNSKDHIQKTNTYWGIILMPDLPFIS
binds: [1] | [2]

B2: 336B10, single chain mouse GITRL trimer linked to the N-terminus of a mouse IgG2a Fc region (Fc fusion, UniProt Q7TS55 43-173, looked up, not shown: a dimerising Fc or GST)
chain: B1 chain
binds: all assays above
